Test results as given in patent publication US20130090371A1, “METHODS AND COMPOSITIONS FOR INHIBITION OF BETA2-ADRENERGIC RECEPTOR DEGRADATION” (PRESIDENT AND FELLOWS OF HARVARD COLLEGE, priority 2010, published 2013).
Some results were stated once for a whole list of compounds, not compound by compound.

Tested on: β2AR
Assay: Immunoblot of β2AR protein in human airway smooth muscle (HASM) cells
Conditions: 50 nM siRNA; three days after transfection

## CaMKK2 siRNA #1: 5′ GCUCCUAUGGUGUCGUCAAdTdT (SEQ ID NO: 32), MISSION siRNA from Sigma (GCUCCUAUGGUGUCGUCAATT; further chemistry not given here)
  increase in β2AR protein level: more than 2 fold
